According to patent publication US20200123499A1 (MIT, published 2020):

Molecular target: N-terminal half of HLH-2 (C. elegans)
Test: yeast two-hybrid

B1: DPY-22 PQ-rich domain (protein, C. elegans, UniProt Q20497 2142-3498, looked up)
chain: QTTRLDKVAKNVQNVLRSNMHHTHVLEFNRPQLLMSDNMFDDIFLAPPDIEITKIIEQPVPVIDEEEAKKRAEEEKEAAEKKEESKNAEDEKNKNNAENKKDTKEGEKGKSKDKEKDGEKEKCKDASKKDDVTSEKNELEKRASDAAAATNAPETNKDMDTSTPKPAPVTRSPATRGRGGGRKRNSGARGGGPRAKRANSRADTAQAAAATTQWNAPIANTSNPAAGGNFHAAMRGNQPPMSNGSSDETKVHIRNLLNRKKEEKRNSLADASAAAAAANSNAMGNTSSMPPSGPPMPMGSSMQSAGATQQLQGMQKHQMGGSMSGMNQNMGGMNQSMSHQAPPPYSSTNEMNRPLMNQYGGPHFAAPNPGPLNRSSGPVSSETRQQIMEQQMREKLAAHHQLVEQQKQRDAREREAREREAREHQERMQREAYMKEQQLLERKRAIEENNRIMEEQQREREMEAARKEAARRAAEEAYAAEQQRLELLRRQEEERLRKEAEERMRIQRENEERVRQEQMRLEAEERERIRRAEEERIQKELEDKVRREKEEAARQEKERQEQEARMREAREAELSRQRMEQQRRSQQNPYMNQQGQYSQQPPPSYQQSSYPNNYQPGQQGNQPPNYQQPSHQSMQQGHQAGYQQTSNQMQMNMQQQQNRQQGGPQQSFSGPGGINQPSQPGYSGYNQQGGQGQQGQMQQQRNPFGNQQDMQQPGAAKLMHAKPNEAHAQQYQHTQNQLSLAQKEKEKQYFQAKNLQASQANAQQQQQRFGDVVAGNVAGYGRPYGQQQLGASDQMGTSQLPGASTSRMNQGSSNPQGGMQSYQQQQPVLGQPGPIQTGQSTQQQIPAQSQQQYNSGRPQMHTTPTKNDMSARAPSGAMGQIANRMGHGTNPQGYGSTGQNVPGGYQQGQQQSGQGSYPQAQQQQPNQYSGSNQQVGQQAQQQQQQPLNQNVSQSQSAAQFGRPSQDSAYQQSGYNQTGNQSYQRPDQQQQGAQQNQWSGSNQAQNQLRSQQQAQQPLQQPQQSQQFQQPAQQAKNPMAQSAQYGGFGGQQQGYDQQQQGQIAPQQAQNPQASQSYGQQQTQQNRYGMGSSGYTANSGGSSNILNQSMEESGLNQGFSGASSNASSQQGGSSQMQQSGYGMPGNQMQMQQNQKQQVQRGMPTGMGQTNMGQSGMGQSGMGQTGMSRSGLGGGIGQQGQQSQQPQQPQVSQQQNQRGMNPGAQLPPYSTGQQQHQPQQSQISQQQQQQDQYRRMQAAQMQQQPTAQGQQNRMGMPSQQQSGAAYSNQMQFQGVRQGQQGMGGMGGSGQQQPQTQPHGSNQYYQQQQDQRMQQQPQQPGQQQQHGYGMGQYPNQQPPNQY
binding: binds

These are yes or no findings as the source states them, for the method shown. A result given as binding can be weak or reduced; the word gives no strength.
